The results in this text go back to patent US20060025429.

Construct, isoform or probe ends are uncertain for at least one entry.

This series concerns HIF-1α/ARNT heterodimer. Nature of the series: EMSA. Particulars: complex formation implied by the heading (disruption of HIF-DNA complex), no numeric result in text; Z-buffer 100 mM KCl, 25 mM Tris pH 7.5, 0.2 mM EDTA, 0 C; protein translated in vitro; protein details: Promega TNT in vitro transcription/translation; label: 5'-32P on HRE-EMSA1 strand. On the technique in general: In EMSA bound probe runs differently from free probe, usually more slowly.

As to “GACTCCACAGTGCATACGTGGGCTCCAACAGGT / ACGTGTTGGAGCCCACGTATGCACTGTGGAGTC [HRE-EMSA probe (VEGF HRE)]”, the binding result was “binds”.
